In the supplement of paper PMC10849652:
The list shows a part of the results.

The chains behind the UniProt entries cited, without tags or fusion partners. Where a name states a change or a piece, a line headed by the entry shows the natural chain unless it says otherwise.
UniProt Q99459: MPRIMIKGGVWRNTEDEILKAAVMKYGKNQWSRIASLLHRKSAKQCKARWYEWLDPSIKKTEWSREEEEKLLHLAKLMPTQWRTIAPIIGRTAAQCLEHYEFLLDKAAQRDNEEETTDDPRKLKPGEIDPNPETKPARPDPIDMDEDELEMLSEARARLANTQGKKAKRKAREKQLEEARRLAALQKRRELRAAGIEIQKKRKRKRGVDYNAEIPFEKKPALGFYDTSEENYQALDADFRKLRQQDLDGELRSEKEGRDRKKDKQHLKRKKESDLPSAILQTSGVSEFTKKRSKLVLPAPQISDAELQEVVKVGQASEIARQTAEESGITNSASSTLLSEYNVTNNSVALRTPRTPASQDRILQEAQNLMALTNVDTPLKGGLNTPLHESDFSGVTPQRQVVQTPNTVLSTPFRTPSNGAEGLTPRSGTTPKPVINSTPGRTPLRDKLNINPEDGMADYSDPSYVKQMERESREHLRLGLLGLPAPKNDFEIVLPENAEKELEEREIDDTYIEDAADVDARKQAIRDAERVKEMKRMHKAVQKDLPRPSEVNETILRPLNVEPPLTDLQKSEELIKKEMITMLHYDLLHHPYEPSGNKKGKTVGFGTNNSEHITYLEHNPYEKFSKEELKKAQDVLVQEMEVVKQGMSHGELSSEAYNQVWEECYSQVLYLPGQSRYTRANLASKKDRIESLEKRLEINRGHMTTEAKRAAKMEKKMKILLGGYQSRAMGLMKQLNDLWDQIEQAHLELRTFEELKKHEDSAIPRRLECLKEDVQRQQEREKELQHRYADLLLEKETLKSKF
UniProt Q15517: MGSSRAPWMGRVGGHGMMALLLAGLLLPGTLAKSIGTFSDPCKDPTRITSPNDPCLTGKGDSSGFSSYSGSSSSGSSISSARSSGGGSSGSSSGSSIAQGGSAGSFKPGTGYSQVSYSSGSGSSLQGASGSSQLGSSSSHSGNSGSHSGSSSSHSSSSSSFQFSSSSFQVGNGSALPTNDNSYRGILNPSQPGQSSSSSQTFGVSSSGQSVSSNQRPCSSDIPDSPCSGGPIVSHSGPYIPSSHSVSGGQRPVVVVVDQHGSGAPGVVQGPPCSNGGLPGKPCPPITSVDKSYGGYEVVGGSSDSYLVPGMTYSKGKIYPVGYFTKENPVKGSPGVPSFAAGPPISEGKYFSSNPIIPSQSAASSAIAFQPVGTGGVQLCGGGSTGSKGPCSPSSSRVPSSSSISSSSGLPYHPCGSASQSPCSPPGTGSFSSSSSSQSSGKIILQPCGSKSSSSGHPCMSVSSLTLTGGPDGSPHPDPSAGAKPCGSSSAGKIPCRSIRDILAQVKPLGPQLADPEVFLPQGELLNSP
UniProt Q16543: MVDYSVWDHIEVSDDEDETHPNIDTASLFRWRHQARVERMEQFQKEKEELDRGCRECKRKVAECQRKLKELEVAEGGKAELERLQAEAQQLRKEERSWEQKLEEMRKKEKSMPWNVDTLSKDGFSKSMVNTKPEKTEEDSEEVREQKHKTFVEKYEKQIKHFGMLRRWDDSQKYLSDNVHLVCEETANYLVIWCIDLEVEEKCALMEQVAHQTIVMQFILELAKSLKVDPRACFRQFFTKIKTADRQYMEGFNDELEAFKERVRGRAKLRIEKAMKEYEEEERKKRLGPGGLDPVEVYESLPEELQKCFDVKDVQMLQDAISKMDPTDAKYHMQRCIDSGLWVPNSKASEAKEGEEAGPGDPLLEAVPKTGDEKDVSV
UniProt Q9P2B7: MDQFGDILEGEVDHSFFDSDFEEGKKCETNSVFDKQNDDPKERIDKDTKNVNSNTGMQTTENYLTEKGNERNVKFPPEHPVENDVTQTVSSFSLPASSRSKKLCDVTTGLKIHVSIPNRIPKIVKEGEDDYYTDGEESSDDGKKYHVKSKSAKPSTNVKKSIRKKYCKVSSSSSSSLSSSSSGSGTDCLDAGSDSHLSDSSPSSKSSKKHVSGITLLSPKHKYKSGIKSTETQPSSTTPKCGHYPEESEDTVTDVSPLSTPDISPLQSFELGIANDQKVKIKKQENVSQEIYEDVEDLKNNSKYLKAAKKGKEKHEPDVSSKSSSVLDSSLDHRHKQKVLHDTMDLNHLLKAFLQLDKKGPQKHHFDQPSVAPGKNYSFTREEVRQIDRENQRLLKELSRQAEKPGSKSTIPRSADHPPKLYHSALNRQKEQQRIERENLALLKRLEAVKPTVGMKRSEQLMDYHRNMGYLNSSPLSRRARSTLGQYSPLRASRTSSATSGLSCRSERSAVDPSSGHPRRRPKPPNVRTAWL
UniProt Q9Y592: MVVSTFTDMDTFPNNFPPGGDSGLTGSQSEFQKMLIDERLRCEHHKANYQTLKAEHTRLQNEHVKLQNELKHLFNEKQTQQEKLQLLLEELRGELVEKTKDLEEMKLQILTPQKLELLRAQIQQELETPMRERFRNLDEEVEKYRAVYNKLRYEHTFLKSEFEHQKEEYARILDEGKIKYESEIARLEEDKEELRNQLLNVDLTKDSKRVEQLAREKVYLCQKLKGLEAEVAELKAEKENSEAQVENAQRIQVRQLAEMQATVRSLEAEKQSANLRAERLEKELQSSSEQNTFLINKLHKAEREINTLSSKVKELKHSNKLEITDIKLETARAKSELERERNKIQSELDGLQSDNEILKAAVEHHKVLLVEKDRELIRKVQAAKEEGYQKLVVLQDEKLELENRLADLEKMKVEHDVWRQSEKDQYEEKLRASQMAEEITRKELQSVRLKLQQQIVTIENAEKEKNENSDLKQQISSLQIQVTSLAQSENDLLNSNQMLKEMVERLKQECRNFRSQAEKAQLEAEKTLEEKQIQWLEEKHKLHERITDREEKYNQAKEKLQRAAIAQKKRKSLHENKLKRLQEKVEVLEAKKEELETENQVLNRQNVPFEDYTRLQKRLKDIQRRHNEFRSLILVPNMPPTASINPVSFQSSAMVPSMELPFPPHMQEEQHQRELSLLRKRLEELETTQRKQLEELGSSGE
UniProt Q9BV73: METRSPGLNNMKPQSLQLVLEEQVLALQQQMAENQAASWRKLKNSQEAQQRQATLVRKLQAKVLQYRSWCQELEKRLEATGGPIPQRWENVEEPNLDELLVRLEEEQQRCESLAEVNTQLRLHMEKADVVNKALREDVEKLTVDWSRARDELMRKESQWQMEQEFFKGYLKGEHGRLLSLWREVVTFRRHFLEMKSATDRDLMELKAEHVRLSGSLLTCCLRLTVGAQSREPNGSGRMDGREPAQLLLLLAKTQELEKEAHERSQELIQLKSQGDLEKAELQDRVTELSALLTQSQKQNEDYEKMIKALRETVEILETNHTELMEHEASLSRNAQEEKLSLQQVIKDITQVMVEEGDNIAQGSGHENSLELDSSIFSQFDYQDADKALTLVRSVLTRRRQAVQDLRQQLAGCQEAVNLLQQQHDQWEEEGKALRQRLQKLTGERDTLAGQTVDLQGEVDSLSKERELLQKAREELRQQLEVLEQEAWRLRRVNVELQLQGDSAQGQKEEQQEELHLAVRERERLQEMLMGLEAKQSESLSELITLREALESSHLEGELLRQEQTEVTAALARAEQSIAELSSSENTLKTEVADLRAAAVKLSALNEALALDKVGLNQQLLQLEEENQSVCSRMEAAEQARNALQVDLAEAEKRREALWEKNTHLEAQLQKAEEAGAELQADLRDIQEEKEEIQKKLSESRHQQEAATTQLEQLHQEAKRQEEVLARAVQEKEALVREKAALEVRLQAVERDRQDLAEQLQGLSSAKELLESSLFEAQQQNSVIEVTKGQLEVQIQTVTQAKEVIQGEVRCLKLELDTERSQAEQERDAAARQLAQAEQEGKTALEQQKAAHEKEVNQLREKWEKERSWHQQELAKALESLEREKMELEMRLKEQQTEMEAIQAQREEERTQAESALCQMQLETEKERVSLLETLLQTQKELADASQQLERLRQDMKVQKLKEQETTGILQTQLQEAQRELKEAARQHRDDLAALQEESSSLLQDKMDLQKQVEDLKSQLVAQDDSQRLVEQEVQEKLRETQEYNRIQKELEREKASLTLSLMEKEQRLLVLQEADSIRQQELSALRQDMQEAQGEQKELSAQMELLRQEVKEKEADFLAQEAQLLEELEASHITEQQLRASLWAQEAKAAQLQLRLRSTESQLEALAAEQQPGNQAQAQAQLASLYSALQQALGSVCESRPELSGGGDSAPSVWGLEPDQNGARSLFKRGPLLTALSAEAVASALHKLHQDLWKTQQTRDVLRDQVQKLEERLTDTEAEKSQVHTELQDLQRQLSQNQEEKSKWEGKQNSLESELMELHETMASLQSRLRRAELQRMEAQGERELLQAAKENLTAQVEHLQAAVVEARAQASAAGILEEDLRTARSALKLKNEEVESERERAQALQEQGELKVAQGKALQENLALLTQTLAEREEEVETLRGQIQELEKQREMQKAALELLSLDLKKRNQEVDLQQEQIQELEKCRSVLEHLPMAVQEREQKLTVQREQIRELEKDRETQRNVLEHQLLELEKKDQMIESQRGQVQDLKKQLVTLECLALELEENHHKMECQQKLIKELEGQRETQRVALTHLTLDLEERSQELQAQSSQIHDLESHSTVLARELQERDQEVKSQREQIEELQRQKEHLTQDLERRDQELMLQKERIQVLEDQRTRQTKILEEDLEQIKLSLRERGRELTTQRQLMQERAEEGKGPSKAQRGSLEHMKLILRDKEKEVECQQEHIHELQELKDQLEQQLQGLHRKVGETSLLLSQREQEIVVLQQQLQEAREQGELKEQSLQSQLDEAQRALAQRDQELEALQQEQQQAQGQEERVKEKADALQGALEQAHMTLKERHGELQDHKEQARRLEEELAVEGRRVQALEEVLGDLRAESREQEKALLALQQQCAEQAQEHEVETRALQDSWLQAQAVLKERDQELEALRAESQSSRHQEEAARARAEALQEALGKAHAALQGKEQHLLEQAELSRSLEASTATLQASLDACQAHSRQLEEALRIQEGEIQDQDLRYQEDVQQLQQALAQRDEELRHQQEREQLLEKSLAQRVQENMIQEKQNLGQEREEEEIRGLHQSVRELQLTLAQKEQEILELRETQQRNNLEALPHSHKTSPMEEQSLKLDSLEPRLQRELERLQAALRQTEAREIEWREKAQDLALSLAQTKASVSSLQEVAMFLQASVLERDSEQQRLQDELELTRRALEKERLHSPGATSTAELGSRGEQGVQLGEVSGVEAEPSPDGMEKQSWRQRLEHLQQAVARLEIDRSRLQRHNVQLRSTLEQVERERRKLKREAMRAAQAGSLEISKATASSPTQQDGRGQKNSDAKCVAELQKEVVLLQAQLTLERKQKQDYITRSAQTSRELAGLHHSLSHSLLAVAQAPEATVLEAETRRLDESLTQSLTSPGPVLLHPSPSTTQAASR
UniProt Q9UFW8: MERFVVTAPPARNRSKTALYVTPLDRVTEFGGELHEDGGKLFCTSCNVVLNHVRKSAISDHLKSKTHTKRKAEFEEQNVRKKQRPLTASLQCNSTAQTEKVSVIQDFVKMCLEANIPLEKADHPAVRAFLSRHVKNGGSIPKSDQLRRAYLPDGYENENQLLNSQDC
UniProt Q01850: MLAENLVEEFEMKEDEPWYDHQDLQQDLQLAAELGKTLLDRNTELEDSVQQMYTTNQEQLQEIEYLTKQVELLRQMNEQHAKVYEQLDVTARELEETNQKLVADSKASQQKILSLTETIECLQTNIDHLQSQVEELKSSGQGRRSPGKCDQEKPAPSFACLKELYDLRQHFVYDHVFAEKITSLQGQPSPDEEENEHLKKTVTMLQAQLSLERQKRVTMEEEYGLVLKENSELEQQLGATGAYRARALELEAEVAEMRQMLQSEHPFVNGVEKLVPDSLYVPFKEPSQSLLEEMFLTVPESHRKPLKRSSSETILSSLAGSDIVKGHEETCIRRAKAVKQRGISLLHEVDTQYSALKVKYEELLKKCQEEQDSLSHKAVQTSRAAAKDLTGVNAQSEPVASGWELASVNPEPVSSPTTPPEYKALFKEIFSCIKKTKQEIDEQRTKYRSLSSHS
UniProt P11802: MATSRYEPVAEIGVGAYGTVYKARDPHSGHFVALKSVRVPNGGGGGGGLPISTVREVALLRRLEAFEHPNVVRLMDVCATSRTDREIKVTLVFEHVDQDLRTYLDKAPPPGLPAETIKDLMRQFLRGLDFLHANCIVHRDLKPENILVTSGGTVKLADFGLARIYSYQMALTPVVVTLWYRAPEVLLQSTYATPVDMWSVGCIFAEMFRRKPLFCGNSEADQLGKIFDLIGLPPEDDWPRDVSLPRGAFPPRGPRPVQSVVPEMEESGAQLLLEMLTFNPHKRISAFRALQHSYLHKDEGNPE

Key:
Assay in all cases: log2 fold change, soluble protein after heating vs DMSO (PISA); higher = thermal stabilisation; K562 lysate, 10 uM; active = over 0.2 and 3.5 SD of the protein, either way, in both replicates (recomputed)
[1] = compound: NCC(=O)Nc1ccc(-n2nc(C(F)(F)F)cc2-c2ccc3c(ccc4ccccc43)c2)cc1
How it was run: (§1)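 Soluble protein was defined as the supernatant remaining after 21,000xg for 90 min, following pooling of heated aliquots and adjustment to 0.5% NP-40 at 4°C. Before that, crude K562 extract at 1 mg/mL protein in PBS pH 7.4 with 1 mM MgCl2 was treated with 10 μM compound for 30 min and heated for 3 min across 48°C-58°C. Quantification used TMTpro 16plex LC-MS/MS with channel sums equalised, and values are log-two fold changes in thermal stability relative to solvent controls from duplicates.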

[2] = compound: O=C(CCCCCCC(=O)Nc1ccccc1)NO [vorinostat]
How it was run: as §1

[3] = compound: O=C(O)c1ccc2c(c1)nc(Nc1cccc(Cl)c1)c1ccncc12 [silmitasertib]
How it was run: as §1

[4] = compound: O=C1NC(=O)C(c2cnc3ccccn23)=C1c1cn2c3c(cc(F)cc13)CN(C(=O)N1CCCCC1)CC2
How it was run: as §1

[5] = compound: c1cn2cc(-c3ccc4cn[nH]c4c3)nc(Nc3ccc(N4CCOCC4)cc3)c2n1 [entospletinib]
How it was run: as §1

Measured: log2 fold change

CDC5L (UniProt Q99459)
inactive: [1] 0.008 | [2] -0.053 | [3] 0.007 | [4] -0.002 | [5] 0.017

CDSN (UniProt Q15517)
inactive: [1] 0 | [2] 0.158 | [3] -0.335 | [4] 0.302 | [5] -0.804

CDC37 (UniProt Q16543)
inactive: [1] 0.012 | [2] 0.099 | [3] -0.002 | [4] 0.003 | [5] -0.004

CFAP97 (UniProt Q9P2B7)
inactive: [1] -0.172 | [2] 0.013 | [3] -0.017 | [4] -0.062

CEP83 (UniProt Q9Y592)
inactive: [1] -0.052 | [2] -0.003 | [3] -0.139 | [4] 0.027

CEP250 (UniProt Q9BV73)
inactive: [1] 0.014 | [2] 0.012 | [3] 0.041 | [4] 0.003 | [5] -0.058

Reprinted from the entries so far (2 entries):
CDSN (UniProt Q15517)
inactive: [1] 0 | [2] 0.158 | [3] -0.335 | [4] 0.302 | [5] -0.804

CDC37 (UniProt Q16543)
inactive: [1] 0.012 | [2] 0.099 | [3] -0.002 | [4] 0.003 | [5] -0.004

(cont.)

CGGBP1 (UniProt Q9UFW8)
inactive: [1] 0.037 | [2] 0.047 | [3] -0.009 | [4] 0.011 | [5] 0

CDC37 (UniProt K7EKQ2)
inactive: [1] -0.01 | [2] -0.031 | [3] 0.012 | [4] -0.112

CDR2 (UniProt Q01850)
inactive: [1] 0.089 | [2] -0.066 | [3] -0.011 | [4] -0.02 | [5] 0.026

CDK4 (UniProt P11802)
inactive: [1] 0.024 | [2] -0.112 | [3] 0.101 | [4] 0.186 | [5] -0.009
